# Test results as given in PubChem BioAssay AID2685 (National Center for Advancing Translational Sciences (NCATS), 2010).
# Some of the results follow. The main result of the screen is listed elsewhere. These columns were measured beside it and carry no call. Most of these compounds were active or inconclusive in the main read-out, so they are no random draw. Words in brackets tell the shape of the fitted curve; partial curves, single points and poor fits give uncertain potencies.
# Test: qHTS Assay for Lipid Storage Modulators in Drosophila S3 Cells;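 for cell number change: cells counted by Cell Tracker Red CMTPX staining in the red channel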
# Details: BODIPY lipid droplet fluorescence, 18-24 h; for cell number change: measured here: cell count max response, cells fed with added oleic acid
# Outline: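 Drosophila S3 cells loaded with oleic acid (400 uM, as added) and compounds at several concentrations; lipid droplets imaged by 488-nm laser-scanning cytometry, 500–530 nm intensity and object ratio to cell channel. Percent activity normalized to 20 uM Triacsin C.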
# [1] = measured here: cell number channel AC50, cells fed with added oleic acid
# [2] = measured here: lipid fluorescence (Fed channel) AC50, cells fed with added oleic acid
Structure (SMILES),cell number change [%],AC50 [1],AC50 [2]
COc1ccccc1NC(=O)C(=O)NCC1CCCN1S(=O)(=O)c1cccs1 (stereo not drawn),-42.4,"20.6 µM [falling, partial curve, poor fit]","29.1 µM [falling, single point]"
COc1ccc(/C=N/NC(=O)CSc2nnc(CCCc3ccc(OC)c(C)c3)o2)cc1,1.43,,"0.146 µM [rising, full curve, poor fit]"
O=C(Nc1nc2n(n1)C(c1ccccc1)CC(c1ccc(Cl)cc1)N2)c1ccco1 (stereo not drawn),-11.8,,"0.00461 µM [falling, full curve, poor fit]"
Cc1csc(/C(=N\O)c2csc(C)n2)n1,-5,,
CCN(CC)CCOC(=O)/C=C/c1ccccc1OC,,,"32.6 µM [rising, single point]"
C#CCOCCOCCOCCNc1nc(N2CCN(C(=O)[C@H]([C@@H](C)CC)n3cc(CCCCN)nn3)CC2)nc(N2CCN(C(=O)[C@H](CCCCN)n3cc(CCC(=O)O)nn3)CC2)n1,-45,"29.1 µM [falling, single point]","25.9 µM [falling, single point]"
O=C(O)COc1ccccc1O,-30,"3.66 µM [falling, full curve, poor fit]","2.31 µM [falling, full curve]"
CCC(CC)c1nnc(NC(=O)c2ccc3c(c2)OCO3)s1,19.6,,
CC1CN(C(=O)CCS(=O)(=O)c2ccccc2)CC(C)O1 (stereo not drawn),-2.17,,
CCN(CC)S(=O)(=O)c1ccc(NC(=O)c2ccccn2)cc1,18.5,,"1.84 µM [rising, full curve]"
CCn1cc(CCC(=O)NCc2ccccc2OC)c2ccccc21,45.1,"0.00461 µM [rising, full curve, poor fit]",
Cn1c(CCNC(=O)c2cccs2)nnc1SCC(=O)Nc1nc(-c2ccccc2)cs1,,"6.51 µM [falling, single point]","29.1 µM [falling, single point]"
COCCN1Cc2cccc(C(=O)NCc3ccc4c(c3)OCO4)c2C1=O,44.6,"8.2 µM [rising, partial curve]","0.13 µM [rising, full curve, poor fit]"
Cc1sc2ncn(CC(=O)NCCCN3CC(C)CC(C)C3)c(=O)c2c1S(=O)(=O)N1CC(C)CC(C)C1 (stereo not drawn),13.1,,"0.58 µM [rising, single point]"
Cc1ccc(N(CCC(=O)O)S(=O)(=O)c2ccc(C)cc2)cc1,-35.7,"25.9 µM [falling, partial curve]","14.6 µM [falling, partial curve]"
Cc1cc(C)cc(-n2c(SCC(=O)NCc3ccco3)nc3ccccc3c2=O)c1,40.7,"4.61 µM [rising, full curve]","16.4 µM [rising, partial curve]"
COc1ccccc1N1CCN(C(=O)CN(c2ccc(C)c(C)c2)S(C)(=O)=O)CC1,31.3,"14.6 µM [rising, single point]","6.51 µM [rising, single point]"
Cc1cc(C2CCCCC2)n(O)c(=O)c1,-54.8,"11.6 µM [falling, partial curve]",
CC(Sc1ccc(S(=O)(=O)N2CCOCC2)cn1)C(=O)Nc1ccc(Cl)cc1Cl (stereo not drawn),6.08,,
Cc1cc(/C=C2/NC(=O)NC2=O)c(C)n1C,-4.17,"4.61 µM [falling, single point]","3.66 µM [falling, single point]"

Structure (SMILES),cell number change [%],AC50 [1],AC50 [2]
O=C(Nc1ccc(N2CCN(C(=O)c3ccccc3)CC2)cc1)c1ccc([N+](=O)[O-])o1,-26.4,"2.31 µM [falling, full curve, poor fit]","3.26 µM [falling, single point]"
O=C(CCN1C(=O)C2CC=CCC2C1=O)Nc1cccc(S(=O)(=O)N2CCCCC2)c1 (stereo not drawn),-13.3,,
Cc1cccc(-c2nnc(SCC#N)n2-c2ccccc2)c1,3.48,,"4.11 µM [rising, full curve, poor fit]"
CCOc1ccc(OCCN2C(=O)c3ccccc3C2=O)cc1,-15.7,,
Cc1ccc(C)c(OCCNc2ncccc2[N+](=O)[O-])c1,-12.9,,"29.1 µM [falling, single point]"
Cc1cccc(S(=O)(=O)Nc2nc3ccccc3nc2NCc2ccc3c(c2)OCO3)c1,12.8,,"13 µM [rising, partial curve, poor fit]"
Cc1ccc2oc(=O)c3cnn(CC(=O)N4CCN(c5ccccn5)CC4)c3c2c1,,"0.0058 µM [rising, full curve, poor fit]",
C[C@H](NC(=O)Nc1cccc(Br)c1)C(=O)O,-38.6,,"18.4 µM [falling, partial curve]"
COc1ccccc1C(=O)OCCN=C1NS(=O)(=O)c2ccccc21,-4.44,,"29.1 µM [falling, single point]"
COc1ccccc1N1CCN(/N=C/c2cc(OC)c(OC(C)=O)c(OC)c2)CC1,12.4,"7.31 µM [rising, partial curve, poor fit]","5.8 µM [rising, single point]"
Cc1ccc(C(=O)NCCCc2ccccc2)c(Cl)c1,25.9,"0.82 µM [rising, full curve, poor fit]",
COc1ccc(CN2CCCN(S(=O)(=O)c3ccc(Br)cc3)CC2)cc1,8.21,,"32.6 µM [rising, single point]"
Oc1ccccc1N=Cc1sc2ccccc2c1Cl,-23.1,,"2.59 µM [falling, full curve]"
O=C(Nc1ccc(Cl)cc1)N1CCC(c2nc(-c3ccc(F)cc3)no2)CC1,-36.5,"18.4 µM [falling, single point]",
COc1ccc(-c2cn3c(C)c(C(=O)Nc4cccc(C)n4)sc3n2)cc1,-34.5,"29.1 µM [falling, single point]","29.1 µM [falling, single point]"
C=Cn1c(N2CCOCC2)nc2c1c(=O)[nH]c(=O)n2C,,,"29.1 µM [rising, single point]"
CCCC(=O)Nc1ccccc1NC(=O)c1ccc2c(c1)OCO2,-4.14,"6.51 µM [falling, single point]","0.13 µM [falling, full curve, poor fit]"
CCNC(C(=O)c1c[nH]c2c(CC)cccc12)c1ccccc1 (stereo not drawn),15,,
CCOC(=O)c1c(C)[nH]c(C)c1S(=O)(=O)N(C)CC(=O)Nc1cccc(F)c1,-8.06,,
CCNC(=O)CCSc1nnc(-c2ccco2)o1,47.2,,

# A different layout for 3 compounds above:
Structure (SMILES)	cell number change [%]	AC50 [1]	AC50 [2]
Cc1ccc2oc(=O)c3cnn(CC(=O)N4CCN(c5ccccn5)CC4)c3c2c1		0.0058 µM [rising, full curve, poor fit]	
COc1ccccc1C(=O)OCCN=C1NS(=O)(=O)c2ccccc21	-4.44		29.1 µM [falling, single point]
CCCC(=O)Nc1ccccc1NC(=O)c1ccc2c(c1)OCO2	-4.14	6.51 µM [falling, single point]	0.13 µM [falling, full curve, poor fit]

# (continued)

Structure (SMILES),cell number change [%],AC50 [1],AC50 [2]
O=C(CCNS(=O)(=O)c1cccc2nonc12)NC1CCCc2ccccc21 (stereo not drawn),,,"0.13 µM [falling, full curve, poor fit]"
CCOC(=O)C1(Cc2ccccc2C)CCCN(C(=O)c2ccccn2)C1 (stereo not drawn),27.4,,"7.31 µM [rising, partial curve, poor fit]"
Cc1oc(-c2ccccc2F)nc1CN1CCC(C(=O)NC2CC2)CC1,15.8,,"0.731 µM [rising, full curve, poor fit]"
COc1ccc2nc(C)c3cc(C)oc3c2c1,,"6.51 µM [rising, single point]",
CN(C)S(=O)(=O)N1CCc2ccccc21,1.95,,"0.13 µM [falling, full curve, poor fit]"
CC1CCCC(C(=O)O)N1C(=O)CCSC(=O)c1ccccc1 (stereo not drawn),-22.7,,"20.6 µM [falling, single point]"
O=C(Nc1nc2ccccc2s1)c1ccc(F)cc1,7.87,,"0.00517 µM [rising, full curve, poor fit]"
O=C(CN1CCN(c2ccccn2)CC1)Nc1nc2ccccc2s1,8.45,,"18.4 µM [falling, single point]"
CC(C)N(C(=O)CSc1nnc(NC(=O)c2ccco2)s1)C(C)C,-24.5,,
N=c1c2c(-c3ccccc3)c(-c3ccccc3)n(Cc3ccco3)c2ncn1CCCn1ccnc1,-13.4,"0.92 µM [rising, full curve, poor fit]",
Cc1cccc(-c2noc(-c3ccc(Cl)cc3[N+](=O)[O-])n2)c1,5.2,,"1.46 µM [rising, full curve, poor fit]"
COc1ccc(-c2cc(-c3nnc(COC(=O)C4CC4C)o3)c3ccccc3n2)cc1OC (stereo not drawn),6.51,,"6.51 µM [rising, partial curve, poor fit]"
O=C(CSc1nnc(-c2ccc(F)cc2)o1)N1CCCCC1,15.8,,"1.16 µM [falling, single point]"
CN1CCC(=NNC(=O)C(=O)NCc2ccccc2)CC1,8.65,,"16.4 µM [falling, partial curve]"
C=CCNc1nnc(SC2CC(=O)N(c3ccc(OCCC)cc3)C2=O)s1 (stereo not drawn),5.36,,"0.651 µM [falling, full curve, poor fit]"
Cc1ccc(NC(=O)c2cccc3c2C(=O)N(C2CCCCC2)C3)c(C)c1,,"0.103 µM [rising, full curve, poor fit]","0.116 µM [rising, single point]"
CCN(CC)C(=O)c1ccc(NS(=O)(=O)c2ccc(/C=C/C(=O)O)cc2)cc1,,,"6.51 µM [rising, single point]"
C=CCn1c(SCc2nc3ccccc3c(=O)[nH]2)nc2sc3c(c2c1=O)CCCC3,5.94,,"0.00461 µM [rising, full curve, poor fit]"
Cc1cccc(N2CCN(C(=O)c3ccccc3SCC(=O)N3CCCC3)CC2)c1C,12.9,,
